Experimental data from patent US12258425B2 (priority 2015, dated 2025).

Assay: peptide made by a vendor (Fmoc solid-phase peptide synthesis; Fmoc-Amide-AMS resin; DIC/HOBt, NMM as base)
Conditions: whole synthesis, HPLC (Venusil XBP-C18 4.6x250 mm)

## His-His-Ile-Tyr-Leu-Gly-Ala-Val-Asn-Tyr-Ile-Tyr-NHz
HCl salt
  final HPLC purity: 97.0%
TFA salt
  final purity (method not given): >95%
TFA salt, converted to HCl salt
  crude purity (method not given): 46%
